The target of assay [1] is sFlt-1 (R&D Systems; construct not stated) (human) (UniProt P17948). The experiment in a line: PlGF added to aliquots of a fixed amount of sFlt-1 before … sandwich immunoassay.
The target in assay [2] is sFlt-1 domains 1-6:Fc chimera from Sf21 cells using baculovirus (human) (UniProt P17948). The assay is described as follows: sandwich CMIA on … (Example 7): sFlt-1 antigen captured by a mAb on microparticles, PlGF-acridinium as conjugate; positive = RLU > 400,000 at 1,000 pg/mL calibrator.

Amino acid sequences for entries named in this document (tags omitted). A change or cut given only in a name is not applied to a line headed by its entry.
UniProt P17948: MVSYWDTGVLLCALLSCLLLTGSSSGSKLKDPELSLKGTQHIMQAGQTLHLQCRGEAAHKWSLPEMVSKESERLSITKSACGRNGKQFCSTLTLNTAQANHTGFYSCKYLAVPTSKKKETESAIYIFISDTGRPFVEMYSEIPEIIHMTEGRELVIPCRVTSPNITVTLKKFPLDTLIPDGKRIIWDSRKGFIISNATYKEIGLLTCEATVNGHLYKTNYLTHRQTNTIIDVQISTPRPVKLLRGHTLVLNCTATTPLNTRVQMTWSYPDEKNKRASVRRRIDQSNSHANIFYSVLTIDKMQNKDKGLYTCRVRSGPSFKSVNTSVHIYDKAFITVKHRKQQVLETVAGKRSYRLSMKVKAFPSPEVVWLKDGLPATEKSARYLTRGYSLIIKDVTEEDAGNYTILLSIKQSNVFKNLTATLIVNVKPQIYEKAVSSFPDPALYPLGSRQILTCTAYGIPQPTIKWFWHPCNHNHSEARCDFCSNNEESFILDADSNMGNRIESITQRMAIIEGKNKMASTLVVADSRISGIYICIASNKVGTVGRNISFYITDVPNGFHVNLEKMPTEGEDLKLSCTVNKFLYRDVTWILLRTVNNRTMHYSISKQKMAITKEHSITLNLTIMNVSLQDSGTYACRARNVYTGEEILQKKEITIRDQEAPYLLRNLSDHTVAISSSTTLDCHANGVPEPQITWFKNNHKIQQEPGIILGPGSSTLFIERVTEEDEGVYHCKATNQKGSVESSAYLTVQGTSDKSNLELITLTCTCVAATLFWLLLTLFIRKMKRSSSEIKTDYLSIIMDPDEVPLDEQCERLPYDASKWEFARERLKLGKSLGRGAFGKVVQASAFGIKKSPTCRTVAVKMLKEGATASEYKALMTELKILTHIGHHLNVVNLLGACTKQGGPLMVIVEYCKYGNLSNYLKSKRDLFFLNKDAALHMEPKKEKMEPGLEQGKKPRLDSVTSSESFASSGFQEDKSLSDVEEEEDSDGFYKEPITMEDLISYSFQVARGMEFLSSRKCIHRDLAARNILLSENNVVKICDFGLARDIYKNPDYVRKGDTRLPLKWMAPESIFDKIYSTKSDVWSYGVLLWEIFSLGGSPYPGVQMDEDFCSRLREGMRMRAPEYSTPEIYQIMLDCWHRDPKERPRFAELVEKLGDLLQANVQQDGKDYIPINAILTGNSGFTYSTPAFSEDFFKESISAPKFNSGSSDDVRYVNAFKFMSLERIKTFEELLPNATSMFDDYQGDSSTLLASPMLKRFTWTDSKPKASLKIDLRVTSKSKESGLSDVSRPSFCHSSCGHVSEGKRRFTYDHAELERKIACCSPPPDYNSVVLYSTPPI

Results are given in words; binding and its absence hold for the method and conditions named. Some entries that bind do so weakly or less than the wild type.

B1: placental growth factor (PlGF) (ligand, UniProt P49763-2 21-149, looked up)
chain: AVPPQQWALSAGNGSSEVEVVPFQEVWGRSYCRALERLVDVVSEYPSEVEHMFSPSCVSLLRCTGCCGDENLHCVPVETANVTMQLLKIRSGDRPSYVELTFSQHVRCECRPLREKMKPERCGDAVPRR
Turning to B1, the binding result in assay [1] and in assay [2] was “binds” in each case.

The record behind these values is US20100266575A1.
